Patent US20030229137A1, “Methods of inhibiting osteoclast activity” (priority 2001, published 2003)

Test system: osteoclast formation from PBMC
Test: in vitro osteoclast formation assay (RANKL/M-CSF, MTS/TRAP)
Type: cell-based
Details: protocol of Example 2, PBMC with RANKL and M-CSF, read-out: IC50 (osteoclast formation inhibition)
Method: Each of the kavalactones isolated in Example 1 was studied in an in vitro osteoclast formation assay. The protocol used (essentially that described in T. Yoneda et al., Endocrinology, 129(2):683-689 (1991) and H. Zhou et al., J Biol. Chem., 272, 14926 (2001)) is as follows:
(A) Osteoclast Formation Culture
1) Prepare assay wells (n=4) for each dilution of a test compound in a 384-plate. Each well contains 25 μl of 2× conc. of the compound in 10% FBS-media/0.5% DMSO.
2) Suspend PBMC in 10% FBS-media supplemented with 40 ng/ml of RANKL and 20 ng/ml of human M-CSF at 1.5 M cells/ml.
3) Vortex cell suspension and filtrate through mesh filter to remove cell aggregates.
4) Inoculate 25 μl of cell suspension to each well.
5) Centrifuge the assay plate at 1500 rpm (˜700 g) for 1 min.
6) Start osteoclast formation culture in a 5% CO2-incubator.
7) After 48 h of the culture, replenish 10 μl of 10% FBS-media supplemented with 120 ng/ml of RANKL and 60 ng/ml of M-CSF. Continue the culture until multiple osteoclasts are visible in control wells (up to 4˜5 days).
1) Add 6 μl of MTS reagent to each well and further incubate 1˜2 hrs.
2) Measure absorbance at 490 nm.
3) Discard MTS/culture media and fix cells in 60% acetone/0.38 M citrate buffer, pH 5.4 for 30 sec. Rinse cells with MQ once and air-dried. […]
5) Measure absorbance at 405 nm. […]

CC/C(=C(\c1ccccc1)c1ccc(OCCN(C)C)cc1)c1ccccc1 [tamoxifen, reference compound]
IC50: < 0.1 µM
